{"source": "paper PMC5518105", "about": "“Identification and characterization of the antiplasmodial activity of Hsp90 inhibitors” (Malaria Journal, 2017)", "key": {"P. falciparum Hsp90": {"test_system": "P. falciparum Hsp90", "format": "binding, Plasmodium falciparum", "experimental": "Full-length human recombinant HSP90α was purchased (Cayman Chemicals, MI), while the malaria recombinant parasite proteins were generated according to the following protocol. […] Growth at 37 °C continued until the OD600 reached ~1.0, whereupon the temperature was lowered to 18 °C and protein expression was induced by the addition of 1 mM isopropyl β-D-thiogalactopyranoside (IPTG). Overnight post-induction cells were collected by centrifugation and resuspended in binding buffer [50 mM Hepes pH 7.5, 500 mM NaCl, 1 mM benzamidine, and 1 mM phenylmethanesulfonyl fluoride (PMSF)]. The cells were lysed by adding chemical lysis buffer (2% CHAPS, 0.1 mg/mL lysozyme and 0.5 U/mL benzonase), the lysate was clarified by centrifugation. The supernatant was loaded on to a nickel-nitrilotriacetic acid column pre-equilibrated with binding buffer (50 mM Hepes pH 7.5, 500 mM NaCl). […] The final protein products and samples for different steps in the purification procedures were evaluated in SDS-Page gels.\nSPR measurements were performed on Biacore T200 instrument (GE Healthcare) at 25 °C. […] The Biacore responses recorded during the 30 s of the injection were used to estimate the association constant (k on) and the 300 s after the injection were used to estimate the dissociation constant (k off). […]"}, "[1]": {"test_system": "Primary normal human lung fibroblasts (NHLFs)", "assay": "Drug cytotoxicity assay (MTT)", "conditions": "NHLF IC50 vs P. falciparum IC50"}}, "note": "Like-named read-outs stand apart in the source and are kept apart here.", "data": [{"smiles": "CC(C)NCCCn1c(Sc2cc(Cl)cc(Cl)c2)nc2c(N)ncnc21", "note": "[PUWS13]", "values": [{"measurement": "affinity difference, parasite chaperone vs human counterpart", "setting": "P. falciparum Hsp90; lower for the parasite chaperone", "value": "over 1000 fold"}]}, {"smiles": "CO[C@H]1/C=C\\C=C(/C)C(=O)NC2=CC(=O)C(NCCN(C)C)=C(C[C@@H](C)C[C@H](OC)[C@H](O)[C@@H](C)/C=C(\\C)[C@@H]1OC(N)=O)C2=O", "note": "[17-DMAG, 17-(dimethylaminoethylamino)-17-demethoxygeldanamycin]", "values": [{"measurement": "difference between the parasite and host IC50s", "setting": "[1]", "value": "> 70", "unit": "fold"}]}, {"smiles": "CC(C)NCCCn1c(Sc2cc3c(cc2I)OCO3)nc2c(N)ncnc21", "note": "[PUH71]", "values": [{"measurement": "affinity difference, parasite chaperone vs human counterpart", "setting": "P. falciparum Hsp90", "value": "over 1000 fold"}]}]}
